These are yes or no findings as the source states them, for the method shown. In cells and extracts the contact can be indirect. Some binding calls cover weakened binding; strength is not graded here. For part of these data: Where a sequence is shown, tags or fusion partners need not be part of it.
T1: MISC-1::GFP (C. elegans) (UniProt P90992)
T1 sequence: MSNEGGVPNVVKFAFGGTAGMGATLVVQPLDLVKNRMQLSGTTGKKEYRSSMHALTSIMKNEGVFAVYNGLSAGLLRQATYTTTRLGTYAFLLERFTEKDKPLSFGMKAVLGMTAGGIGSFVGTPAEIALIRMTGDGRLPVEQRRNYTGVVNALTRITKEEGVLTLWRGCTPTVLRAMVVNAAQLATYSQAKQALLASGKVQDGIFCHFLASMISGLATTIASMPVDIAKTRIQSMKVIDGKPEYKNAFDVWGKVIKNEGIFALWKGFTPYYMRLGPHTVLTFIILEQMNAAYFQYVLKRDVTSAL

Sequences of proteins named here, by UniProt entry; tags and fusion partners are left off.
UniProt Q07817: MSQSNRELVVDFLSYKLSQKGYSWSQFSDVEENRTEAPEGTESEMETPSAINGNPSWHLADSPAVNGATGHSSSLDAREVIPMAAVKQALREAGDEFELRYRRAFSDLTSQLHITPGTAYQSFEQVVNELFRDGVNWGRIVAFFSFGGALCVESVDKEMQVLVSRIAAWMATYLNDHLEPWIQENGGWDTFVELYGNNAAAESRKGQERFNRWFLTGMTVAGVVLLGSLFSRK

T2: MISC-1 (Mitochondrial Solute Carrier) (C. elegans (endogenous in N2)) (UniProt P90992)
T2 sequence: T1 sequence

B1: 2-oxoglutarate carrier (OGC) (protein, UniProt Q02978 1-314)
chain: MAATASAGAGGIDGKPRTSPKSVKFLFGGLAGMGATVFVQPLDLVKNRMQLSGEGAKTREYKTSFHALTSILKAEGLRGIYTGLSAGLLRQATYTTTRLGIYTVLFERLTGADGTPPGFLLKAVIGMTAGATGAFVGTPAEVALIRMTADGRLPADQRRGYKNVFNALIRITREEGVLTLWRGCIPTMARAVVVNAAQLASYSQSKQFLLDSGYFSDNILCHFCASMISGLVTTAASMPVDIAKTRIQNMRMIDGKPEYKNGLDVLFKVVRYEGFFSLWKGFTPYYARLGPHTVLTFIFLEQMNKAYKRLFLSG
B2: CED-9 (protein, UniProt P41958 1-280)
chain: MTRCTADNSLTNPAYRRRTMATGEMKEFLGIKGTEPTDFGINSDAQDLPSPSRQASTRRMSIGESIDGKINDWEEPRLDIEGFVVDYFTHRIRQNGMEWFGAPGLPCGVQPEHEMMRVMGTIFEKKHAENFETFCEQLLAVPRISFSLYQDVVRTVGNAQTDQCPMSYGRLIGLISFGGFVAAKMMESVELQGQVRNLFVYTSLFIKTRIRNNWKEHNRSWDDFMTLGKQMKEDYERAEAEKVGRRKQNRRWSMIGAGVTAGAIGIVGVVVCGRMMFSLK

Experiments:
[1] = target: Bcl-xL (human (endogenous in HEK293)) (UniProt Q07817); assay: co-IP; immunoprecipitation with an antibody against Bcl-xL from HEK293 cells; data not shown
[2] = target: T1, MISC-1::GFP (C. elegans); assay: co-IP; lysates of mixed stage C. elegans (wild type N2 and the MISC-1::GFP transgenic line) in co-immunoprecipitation buffer, several combinations of antibodies, protocol as for mammalian cells, Western blot
[3] = target: T2, MISC-1 (Mitochondrial Solute Carrier) (C. elegans (endogenous in N2)); assay: as above

Row | Binder | binding [1] | binding [2] | binding [3]
1 | B1 | binds | – | –
2 | B2 | – | binds | binds

Reference: paper PMC3063170
